Assay results published in the supplement of paper PMC10849652.
Some of the results follow.

Amino acid sequences for entries named in this document (tags omitted). A change or cut given only in a name is not applied to a line headed by its entry.
UniProt O95197: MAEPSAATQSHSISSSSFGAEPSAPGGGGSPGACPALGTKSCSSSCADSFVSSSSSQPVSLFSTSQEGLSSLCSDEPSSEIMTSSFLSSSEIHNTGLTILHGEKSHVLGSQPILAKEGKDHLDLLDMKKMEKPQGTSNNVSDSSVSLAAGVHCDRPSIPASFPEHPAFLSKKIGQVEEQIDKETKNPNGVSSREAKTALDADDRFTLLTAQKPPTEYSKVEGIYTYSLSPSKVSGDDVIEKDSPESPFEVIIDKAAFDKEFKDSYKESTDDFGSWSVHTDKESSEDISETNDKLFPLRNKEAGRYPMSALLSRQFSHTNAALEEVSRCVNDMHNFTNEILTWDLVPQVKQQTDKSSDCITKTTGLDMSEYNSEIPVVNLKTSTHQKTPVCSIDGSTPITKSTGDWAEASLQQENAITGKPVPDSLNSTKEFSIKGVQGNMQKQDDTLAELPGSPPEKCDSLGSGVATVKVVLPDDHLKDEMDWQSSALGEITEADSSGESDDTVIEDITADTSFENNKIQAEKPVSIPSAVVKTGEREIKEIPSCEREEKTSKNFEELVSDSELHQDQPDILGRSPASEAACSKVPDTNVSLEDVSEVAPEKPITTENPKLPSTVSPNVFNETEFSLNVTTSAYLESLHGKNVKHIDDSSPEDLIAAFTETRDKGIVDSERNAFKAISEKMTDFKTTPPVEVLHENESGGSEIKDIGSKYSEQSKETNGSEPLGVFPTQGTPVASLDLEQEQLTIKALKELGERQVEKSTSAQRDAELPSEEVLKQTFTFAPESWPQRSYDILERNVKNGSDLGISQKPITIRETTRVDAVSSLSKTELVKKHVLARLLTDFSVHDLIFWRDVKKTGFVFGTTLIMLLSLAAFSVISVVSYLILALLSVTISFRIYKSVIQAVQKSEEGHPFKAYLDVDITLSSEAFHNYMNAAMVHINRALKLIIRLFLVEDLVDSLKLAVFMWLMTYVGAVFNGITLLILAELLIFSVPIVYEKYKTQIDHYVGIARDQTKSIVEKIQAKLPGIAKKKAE
UniProt Q8NBX0: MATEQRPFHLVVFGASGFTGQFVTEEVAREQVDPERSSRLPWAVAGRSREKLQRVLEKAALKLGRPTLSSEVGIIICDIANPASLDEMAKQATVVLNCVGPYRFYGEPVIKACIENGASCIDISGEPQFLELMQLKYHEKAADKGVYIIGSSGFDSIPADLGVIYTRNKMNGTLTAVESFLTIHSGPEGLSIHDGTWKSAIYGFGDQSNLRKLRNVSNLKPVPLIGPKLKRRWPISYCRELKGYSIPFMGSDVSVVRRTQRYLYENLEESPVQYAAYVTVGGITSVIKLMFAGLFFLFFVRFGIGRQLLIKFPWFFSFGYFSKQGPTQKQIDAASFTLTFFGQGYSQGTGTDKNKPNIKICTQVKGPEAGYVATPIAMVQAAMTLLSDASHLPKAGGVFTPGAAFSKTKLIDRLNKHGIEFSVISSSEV
UniProt Q96T51: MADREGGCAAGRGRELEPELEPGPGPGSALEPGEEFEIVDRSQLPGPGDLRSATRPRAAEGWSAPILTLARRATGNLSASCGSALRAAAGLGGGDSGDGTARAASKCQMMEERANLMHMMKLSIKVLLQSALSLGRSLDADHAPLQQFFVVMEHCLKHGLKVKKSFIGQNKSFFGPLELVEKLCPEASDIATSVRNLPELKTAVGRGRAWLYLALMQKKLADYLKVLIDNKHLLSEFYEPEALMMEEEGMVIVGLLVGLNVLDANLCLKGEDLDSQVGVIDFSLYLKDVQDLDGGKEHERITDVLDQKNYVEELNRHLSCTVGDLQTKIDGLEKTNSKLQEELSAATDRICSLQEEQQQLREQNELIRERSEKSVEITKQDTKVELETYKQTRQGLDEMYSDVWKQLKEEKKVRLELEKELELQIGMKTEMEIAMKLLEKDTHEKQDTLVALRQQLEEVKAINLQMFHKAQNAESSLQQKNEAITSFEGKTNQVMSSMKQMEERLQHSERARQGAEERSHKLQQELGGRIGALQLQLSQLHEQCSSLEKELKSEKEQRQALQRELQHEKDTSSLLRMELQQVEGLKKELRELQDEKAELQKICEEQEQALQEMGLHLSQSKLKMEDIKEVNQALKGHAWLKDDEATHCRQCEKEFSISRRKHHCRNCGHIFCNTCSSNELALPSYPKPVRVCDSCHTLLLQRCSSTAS
UniProt Q01196, whole entry, looked up: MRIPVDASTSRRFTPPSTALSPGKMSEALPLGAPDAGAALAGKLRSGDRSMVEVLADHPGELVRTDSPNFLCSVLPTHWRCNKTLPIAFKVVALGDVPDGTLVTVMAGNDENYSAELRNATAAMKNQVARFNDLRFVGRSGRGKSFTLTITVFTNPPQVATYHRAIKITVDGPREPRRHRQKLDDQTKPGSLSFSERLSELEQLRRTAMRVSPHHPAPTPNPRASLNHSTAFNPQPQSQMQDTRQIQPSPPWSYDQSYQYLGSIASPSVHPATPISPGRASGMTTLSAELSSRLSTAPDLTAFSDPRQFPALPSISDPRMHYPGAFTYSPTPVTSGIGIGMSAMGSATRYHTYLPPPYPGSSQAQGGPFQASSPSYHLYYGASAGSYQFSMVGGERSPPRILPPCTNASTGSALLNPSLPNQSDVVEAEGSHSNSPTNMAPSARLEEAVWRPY
UniProt Q96IZ7: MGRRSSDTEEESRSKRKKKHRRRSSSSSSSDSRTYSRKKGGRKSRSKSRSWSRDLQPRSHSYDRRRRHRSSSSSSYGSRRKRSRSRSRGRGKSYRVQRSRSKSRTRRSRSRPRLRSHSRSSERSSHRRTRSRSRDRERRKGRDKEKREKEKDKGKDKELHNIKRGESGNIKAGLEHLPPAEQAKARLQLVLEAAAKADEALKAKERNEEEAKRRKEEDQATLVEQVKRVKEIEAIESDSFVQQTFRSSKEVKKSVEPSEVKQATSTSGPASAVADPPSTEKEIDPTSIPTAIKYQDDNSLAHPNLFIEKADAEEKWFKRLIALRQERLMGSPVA
UniProt O75298: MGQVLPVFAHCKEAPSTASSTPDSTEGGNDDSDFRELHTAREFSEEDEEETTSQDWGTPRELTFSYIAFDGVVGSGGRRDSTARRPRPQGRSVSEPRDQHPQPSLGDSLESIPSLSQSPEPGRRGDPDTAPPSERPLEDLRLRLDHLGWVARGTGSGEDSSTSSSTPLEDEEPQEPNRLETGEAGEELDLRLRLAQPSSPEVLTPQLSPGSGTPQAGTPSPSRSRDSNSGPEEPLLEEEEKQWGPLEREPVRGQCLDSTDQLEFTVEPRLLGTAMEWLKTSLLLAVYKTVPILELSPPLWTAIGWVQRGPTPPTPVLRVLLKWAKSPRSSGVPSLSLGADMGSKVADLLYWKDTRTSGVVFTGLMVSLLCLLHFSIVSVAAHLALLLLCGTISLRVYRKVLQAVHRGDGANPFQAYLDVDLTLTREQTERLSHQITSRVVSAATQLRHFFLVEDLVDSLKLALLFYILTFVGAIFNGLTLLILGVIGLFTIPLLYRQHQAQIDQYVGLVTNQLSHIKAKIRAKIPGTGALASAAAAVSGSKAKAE
UniProt Q99590: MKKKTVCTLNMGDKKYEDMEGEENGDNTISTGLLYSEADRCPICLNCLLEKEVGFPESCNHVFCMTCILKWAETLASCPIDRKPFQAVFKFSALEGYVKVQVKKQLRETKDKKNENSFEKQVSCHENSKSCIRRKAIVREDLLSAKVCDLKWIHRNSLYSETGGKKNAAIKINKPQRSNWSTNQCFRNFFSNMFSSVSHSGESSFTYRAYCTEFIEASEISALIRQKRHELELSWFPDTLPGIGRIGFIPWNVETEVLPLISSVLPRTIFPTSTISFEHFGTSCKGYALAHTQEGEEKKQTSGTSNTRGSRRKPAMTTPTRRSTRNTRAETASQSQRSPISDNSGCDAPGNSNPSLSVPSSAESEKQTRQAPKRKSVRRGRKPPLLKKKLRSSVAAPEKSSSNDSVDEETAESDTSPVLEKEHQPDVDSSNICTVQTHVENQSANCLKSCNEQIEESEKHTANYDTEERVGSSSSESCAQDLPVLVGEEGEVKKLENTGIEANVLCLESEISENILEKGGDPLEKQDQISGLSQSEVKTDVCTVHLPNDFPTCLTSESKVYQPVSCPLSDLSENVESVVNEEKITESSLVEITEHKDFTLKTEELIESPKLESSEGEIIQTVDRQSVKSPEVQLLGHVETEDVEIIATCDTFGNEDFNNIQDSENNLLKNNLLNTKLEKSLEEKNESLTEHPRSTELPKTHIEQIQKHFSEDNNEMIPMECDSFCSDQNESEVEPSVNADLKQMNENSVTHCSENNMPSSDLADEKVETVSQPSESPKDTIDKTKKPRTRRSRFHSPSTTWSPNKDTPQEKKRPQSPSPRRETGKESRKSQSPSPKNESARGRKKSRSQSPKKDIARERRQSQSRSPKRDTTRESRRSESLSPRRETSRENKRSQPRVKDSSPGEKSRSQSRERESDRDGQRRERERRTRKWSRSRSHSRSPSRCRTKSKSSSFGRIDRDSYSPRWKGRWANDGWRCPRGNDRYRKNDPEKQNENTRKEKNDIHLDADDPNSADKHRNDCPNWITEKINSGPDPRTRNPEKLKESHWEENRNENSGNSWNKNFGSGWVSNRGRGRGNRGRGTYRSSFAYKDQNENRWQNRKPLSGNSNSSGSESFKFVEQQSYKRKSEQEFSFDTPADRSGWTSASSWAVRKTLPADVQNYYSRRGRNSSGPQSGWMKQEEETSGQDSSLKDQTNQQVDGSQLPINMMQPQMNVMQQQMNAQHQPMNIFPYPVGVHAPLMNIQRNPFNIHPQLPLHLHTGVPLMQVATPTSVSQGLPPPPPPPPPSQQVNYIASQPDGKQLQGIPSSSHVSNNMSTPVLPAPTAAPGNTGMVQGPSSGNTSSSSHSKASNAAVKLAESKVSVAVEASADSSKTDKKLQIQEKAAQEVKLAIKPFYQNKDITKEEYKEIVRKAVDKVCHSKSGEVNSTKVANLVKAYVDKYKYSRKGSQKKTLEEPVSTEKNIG
UniProt Q9NQC3: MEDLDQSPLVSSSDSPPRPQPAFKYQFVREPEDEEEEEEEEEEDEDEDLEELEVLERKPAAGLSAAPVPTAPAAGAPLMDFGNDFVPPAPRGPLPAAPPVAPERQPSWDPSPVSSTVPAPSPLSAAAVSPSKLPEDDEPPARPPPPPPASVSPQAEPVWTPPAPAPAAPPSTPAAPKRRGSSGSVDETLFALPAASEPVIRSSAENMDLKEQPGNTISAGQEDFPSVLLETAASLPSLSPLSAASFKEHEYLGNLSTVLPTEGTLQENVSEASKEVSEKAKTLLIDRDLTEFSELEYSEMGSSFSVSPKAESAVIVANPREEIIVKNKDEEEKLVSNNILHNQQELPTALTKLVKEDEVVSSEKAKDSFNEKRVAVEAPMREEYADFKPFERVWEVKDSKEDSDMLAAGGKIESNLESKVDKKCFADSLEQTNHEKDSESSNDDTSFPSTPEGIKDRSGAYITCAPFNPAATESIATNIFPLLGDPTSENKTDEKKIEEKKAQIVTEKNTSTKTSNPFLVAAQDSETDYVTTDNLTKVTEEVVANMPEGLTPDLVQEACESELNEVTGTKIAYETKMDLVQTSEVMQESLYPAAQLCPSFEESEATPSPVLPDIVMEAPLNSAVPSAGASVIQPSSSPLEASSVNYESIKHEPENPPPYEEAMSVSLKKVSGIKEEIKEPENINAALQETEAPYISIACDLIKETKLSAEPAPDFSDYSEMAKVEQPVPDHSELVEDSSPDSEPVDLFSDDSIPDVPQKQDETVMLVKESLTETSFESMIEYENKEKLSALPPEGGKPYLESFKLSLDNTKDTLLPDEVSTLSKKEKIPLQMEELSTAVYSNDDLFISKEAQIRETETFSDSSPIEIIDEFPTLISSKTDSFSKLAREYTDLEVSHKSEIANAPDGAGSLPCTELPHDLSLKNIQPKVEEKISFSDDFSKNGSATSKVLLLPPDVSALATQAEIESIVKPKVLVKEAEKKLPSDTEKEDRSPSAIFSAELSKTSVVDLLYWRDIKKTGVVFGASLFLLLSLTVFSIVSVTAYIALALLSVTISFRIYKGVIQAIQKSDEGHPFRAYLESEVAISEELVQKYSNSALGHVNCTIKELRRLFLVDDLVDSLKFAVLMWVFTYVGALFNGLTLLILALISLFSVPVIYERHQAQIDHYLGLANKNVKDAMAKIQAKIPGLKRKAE
UniProt P57060: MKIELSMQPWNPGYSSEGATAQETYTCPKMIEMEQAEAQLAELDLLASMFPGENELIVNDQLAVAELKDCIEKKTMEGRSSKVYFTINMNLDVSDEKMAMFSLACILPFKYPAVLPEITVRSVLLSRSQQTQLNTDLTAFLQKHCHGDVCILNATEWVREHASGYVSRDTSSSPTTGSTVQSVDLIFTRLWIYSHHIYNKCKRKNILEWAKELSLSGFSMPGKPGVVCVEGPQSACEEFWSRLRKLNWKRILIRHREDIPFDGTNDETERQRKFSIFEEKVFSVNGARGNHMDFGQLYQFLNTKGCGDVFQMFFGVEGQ

How the values were obtained:
Experiment in all cases: log2 fold change, soluble protein after heating vs DMSO (PISA); higher = thermal stabilisation; K562 cells, 10 uM, 30 min; active = over 0.2 and 3.5 SD of the protein, either way, in both replicates (recomputed)
[1] = compound: CC1=C(C=C(C=C1)NC(=O)C2=CC(=CC=C2)C(C)(C)C#N)NC3=CC4=C(C=C3)N=CN(C4=O)C
Outline: (§1)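 K562 cells at 2×10^6 cells/mL were given 10 μM compound for 30 min. Aliquots then went through 3 min of heating across 48°C-58°C, were pooled, and were extracted in PBS with 0.5% NP-40 at 4°C, and the supernatant after 21,000xg for 90 min was quantified by TMTpro 16plex LC-MS/MS with channel sums equalised. Thermal stability relative to control samples, from duplicates, is given as log2 fold change.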

[2] = compound: CC1=C(C=C(C=C1)NC(=O)C2=CC(=CC=C2)N(C)C)NC(=O)C3=CC=C(C=C3)O
Outline: as §1

[3] = compound: CC1=CC=C(C=C1)SC2=C3C=C(SC3=CN=C2)C(=O)N
Outline: as §1

[4] = compound: CC1=NC(=CC=C1)C2=C(N=C(N2)C(C)(C)C)C3=CC4=NC=CN=C4C=C3
Outline: as §1

[5] = compound: CCCCN(Cc1ccc(C(=O)NO)cc1)C(=O)Nc1ccccc1 [Nexturastat A]
Outline: as §1

[6] = compound: CCCS(=O)(=O)Nc1ccc(F)c(C(=O)c2c[nH]c3ncc(-c4ccc(Cl)cc4)cc23)c1F [vemurafenib]
Outline: as §1

[7] = compound: CCCS(=O)(=O)Nc1ccc(F)c(C(=O)c2c[nH]c3ncc(Cl)cc23)c1F
Outline: as §1

[8] = compound: CCCc1cc(C)[nH]c(=O)c1CNC(=O)c1cc(-c2ccnc(N3CCN(C)CC3)c2)cc2c1cnn2C(C)C
Outline: as §1

[9] = compound: CCN(CC)Cc1ccc2cc(COC(=O)Nc3ccc(C(=O)NO)cc3)ccc2c1 [givinostat]
Outline: as §1

[10] = compound: CCN(CCCOc1ccc2c(Nc3cc(CC(=O)Nc4cccc(F)c4)[nH]n3)ncnc2c1)CCOP(=O)(O)O [barasertib]
Outline: as §1

[11] = compound: CC[C@@H]1C(=O)N(C)c2cnc(Nc3ccc(C(=O)NC4CCN(C)CC4)cc3OC)nc2N1C1CCCC1
Outline: as §1

[12] = compound: CC[C@@H]1C(=O)N(C)c2cnc(Nc3ccc(C(=O)N[C@H]4CC[C@H](N5CCN(CC6CC6)CC5)CC4)cc3OC)nc2N1C(C)C [volasertib]
Outline: as §1

[13] = compound: CC[C@H](C)N1C=C(C2=C(C=C(C=C21)C3=CN=C(C=C3)N4CCNCC4)C(=O)NCC5=C(C=C(NC5=O)C)C)C
Outline: as §1

[14] = compound: CC[C@H](C)[C@@H](C(=O)N[C@@H]([C@@H](C)O)C(=O)N[C@@H](CC(C)C)C(=O)[C@]1(CO1)C)NC(=O)[C@H]([C@@H](C)CC)N(C)C(=O)C [epoxomicin]
Outline: as §1

[15] = compound: CCn1c(C(=O)N(C2CC2)C2CC2)cc2c3c(ncn3C)c(Nc3cc(C)n(C)n3)nc21
Outline: as §1

[16] = compound: CN(C)CC(=O)Nc1ccc2[nH]c(=O)c3ccccc3c2c1
Outline: as §1

[17] = compound: CN(CCOC1=CC=C(C=C1)C[C@H]2C(=O)NC(=O)S2)C3=CC=CC=N3 (racemic) [rosiglitazone]
Outline: as §1

[18] = compound: CN1C2=C(C3=C1C(=O)N(N=C3)CC4=CC(=CC=C4)N)SC(=C2)S(=O)C
Outline: as §1

[19] = compound: CCn1cc(-c2ccnc3[nH]c(-c4cccc(CN(C)C)c4)cc23)c(-c2ccc(NC(=O)N(C)C)cc2)n1
Outline: as §1

[20] = compound: CN1CCC(CNc2ccc3ncc(-c4cccc(OC(F)(F)F)c4)n3n2)CC1
Outline: as §1

Target | log2 fold change [1] | log2 fold change [2] | log2 fold change [3] | log2 fold change [4] | log2 fold change [5] | log2 fold change [6] | log2 fold change [7] | log2 fold change [8] | log2 fold change [9] | log2 fold change [10] | log2 fold change [11] | log2 fold change [12] | log2 fold change [13] | log2 fold change [14] | log2 fold change [15] | log2 fold change [16] | log2 fold change [17] | log2 fold change [18] | log2 fold change [19] | log2 fold change [20]
RTN3 isoform 5 (UniProt O95197) | inactive: 0.109 | inactive: -0.004 | inactive: 0.227 | inactive: -0.075 | inactive: -0.344 | inactive: 0.092 | inactive: 0.189 | inactive: -0.067 | inactive: -0.064 | inactive: 0.038 | inactive: 0.047 | inactive: -0.032 | inactive: -0.054 | inactive: 0.056 | inactive: 0.011 | inactive: 0.159 | inactive: 0.084 | inactive: -0.127 |  | 
SCCPDH (UniProt Q8NBX0) | inactive: 0.147 | inactive: -0.092 | inactive: 0.074 | inactive: 0.037 | inactive: -0.232 | inactive: -0.016 | inactive: -0.123 | inactive: 0.016 | inactive: 0.183 | inactive: 0.046 | inactive: 0.083 | inactive: 0.158 | inactive: -0.06 | inactive: -0.024 |  | inactive: 0.039 |  | inactive: -0.194 | inactive: -0.07 | inactive: 0.216
RSL1D1 (UniProt O76021) | inactive: -0.019 | inactive: 0.039 | inactive: -0.155 | inactive: -0.148 | inactive: 0.256 | inactive: -0.126 | inactive: -0.137 | inactive: 0.15 | inactive: 0.087 | inactive: -0.167 | inactive: 0.301 | inactive: 0.399 | inactive: 0.012 | inactive: -0.517 |  | inactive: -0.214 |  | inactive: 0.374 | inactive: 0.155 | inactive: 0.591
RUFY1 (UniProt Q96T51) | inactive: 0.013 | inactive: -0.011 | inactive: -0.022 | inactive: -0.035 | inactive: 0.063 | inactive: 0.043 | inactive: 0.059 | inactive: 0.029 | inactive: 0.031 | inactive: 0.027 | inactive: -0.145 | active: -0.355 | inactive: 0.07 | inactive: -0.015 |  | inactive: 0.033 |  | inactive: 0.032 | inactive: 0.06 | inactive: -0.058
RSF1 (UniProt Q96T23) | inactive: 0.111 | inactive: -0.112 | inactive: -0.015 | inactive: 0.217 | inactive: -0.091 | inactive: 0.119 | inactive: 0.052 | inactive: 0.029 | inactive: 0.084 | inactive: 0.095 | inactive: -0.138 | inactive: -0.358 | inactive: 0.012 | inactive: 0.165 |  | inactive: 0.141 |  | inactive: -0.008 | inactive: -0.098 | inactive: -0.109
RUNX1 isoform 8 (UniProt Q01196) | inactive: 0.236 | inactive: 0.018 | inactive: 0.059 | inactive: -0.045 | inactive: -0.231 | inactive: -0.026 | inactive: 0.046 | inactive: 0.088 | inactive: 0.076 | inactive: -0.058 | inactive: -0.331 | active: -0.434 | inactive: 0.086 | inactive: -0.206 |  | inactive: 0.06 |  | inactive: -0.027 | inactive: -0.089 | inactive: -0.102
RSRC1 (UniProt Q96IZ7) | inactive: 0.041 | inactive: 0.013 | inactive: 0.006 | inactive: 0.056 | inactive: 0.02 | inactive: -0.046 | inactive: 0.004 | inactive: -0.026 | inactive: 0.019 | inactive: -0.031 | inactive: 0.01 | inactive: 0.056 | inactive: -0.041 | inactive: 0.083 |  | inactive: -0.005 |  | inactive: -0.01 | inactive: -0.021 | inactive: -0.062
SASH1 (UniProt O94885) | inactive: 0.046 | inactive: -0.013 | inactive: 0.024 | inactive: 0.01 | inactive: 0.038 | inactive: -0.043 | inactive: 0.097 | inactive: -0.031 | inactive: -0.063 | inactive: 0.071 | inactive: -0.136 | active: -0.308 | inactive: 0.044 | inactive: -0.075 |  | inactive: 0.042 |  | inactive: 0.054 | inactive: 0.027 | inactive: -0.29
SAMSN1 isoform 3 (UniProt Q9NSI8) | inactive: 0.014 | inactive: -0.011 | inactive: 0.029 | inactive: 0.017 | inactive: -0.027 | inactive: -0.001 | inactive: 0.029 | inactive: 0 | inactive: 0.02 | inactive: 0.042 | inactive: -0.069 | inactive: -0.153 | inactive: 0.026 | inactive: 0.018 |  | inactive: 0.017 |  | inactive: 0 | inactive: -0.065 | active: -0.253
SEC23IP (UniProt Q9Y6Y8) | inactive: 0.016 | inactive: 0.041 | inactive: 0.041 | inactive: 0.012 | inactive: 0.022 | inactive: 0.051 | inactive: 0.056 | inactive: 0.024 | inactive: 0.047 | inactive: 0.016 | inactive: -0.069 | inactive: -0.005 | inactive: 0.032 | inactive: -0.009 |  | inactive: 0.012 |  | inactive: -0.008 | inactive: -0.057 | inactive: -0.133
RTN2 (UniProt O75298) | inactive: 0.1 | inactive: -0.026 | inactive: 0.015 | inactive: 0.067 | inactive: -0.221 | inactive: -0.056 | inactive: 0.043 | inactive: -0.054 | inactive: 0.036 | inactive: 0.036 | inactive: 0.035 | inactive: -0.043 | inactive: 0.068 | inactive: 0.084 | inactive: 0.049 | inactive: 0.001 | inactive: -0.011 | inactive: -0.065 |  | 
SCAF11 (UniProt Q99590) | inactive: -0.089 | inactive: 0.154 | inactive: -0.079 | inactive: -0.275 | inactive: 0.003 | inactive: -0.158 | inactive: -0.031 | inactive: 0.035 | inactive: -0.034 | inactive: 0.165 | inactive: 0.145 | inactive: 0.153 | inactive: -0.092 | inactive: -0.074 |  | inactive: -0.142 |  | inactive: 0.148 | inactive: 0.176 | inactive: 0.25
SEC24A (UniProt O95486) | inactive: 0.025 | inactive: -0.089 | inactive: 0 | inactive: 0.012 | inactive: -0.04 | inactive: 0.023 | inactive: 0.051 | inactive: 0.08 | inactive: 0.072 | inactive: 0.006 | inactive: -0.077 | active: -0.253 | inactive: 0.018 | inactive: 0.055 |  | inactive: 0.065 |  | inactive: -0.054 | inactive: 0.003 | inactive: -0.029
RTN4IP1 (UniProt Q8WWV3) | inactive: 0.253 | inactive: -0.033 | inactive: 0.294 | inactive: 0.119 | inactive: -0.061 | inactive: 0.034 | inactive: -0.041 | inactive: -0.218 | inactive: -0.081 | inactive: 0.031 | inactive: -0.118 | inactive: -0.196 | inactive: -0.059 | inactive: -0.02 |  | inactive: -0.003 | active: 0.965 | inactive: -0.219 | inactive: -0.079 | inactive: -0.12
RRS1 (UniProt Q15050) | inactive: 0.024 | inactive: 0.021 | inactive: -0.043 | inactive: -0.163 | inactive: 0.31 | inactive: -0.174 | inactive: -0.03 | inactive: 0.104 | inactive: 0.093 | inactive: -0.101 | inactive: 0.291 | inactive: 0.286 | inactive: 0.023 | inactive: -0.381 |  | inactive: -0.029 |  | inactive: 0.28 | inactive: 0.143 | inactive: 0.268
RTN4 isoform 2 (UniProt Q9NQC3) | inactive: 0.035 | inactive: 0.044 | inactive: -0.038 | inactive: 0.038 | inactive: -0.09 | inactive: 0.067 | inactive: -0.026 |  | inactive: 0.017 | inactive: 0.038 |  | inactive: 0.033 |  | inactive: -0.117 | inactive: 0.22 | inactive: -0.004 | inactive: 0.003 | inactive: -0.077 | inactive: -0.249 | inactive: 0.265
SDHB, A0A087WWT1 | inactive: -0.088 | inactive: -0.153 | inactive: 0.076 | inactive: 0.016 | inactive: -0.04 | inactive: -0.017 | inactive: -0.125 | inactive: -0.318 | inactive: 0.102 | inactive: -0.036 | inactive: -0.008 | inactive: 0.125 |  | inactive: -0.107 | inactive: 0.007 | inactive: -0.074 | inactive: 0.345 | inactive: 0.155 | inactive: 0.09 | inactive: 0
RWDD2B (UniProt P57060) | inactive: -0.014 | inactive: -0.135 | inactive: 0.003 | inactive: -0.045 |  | inactive: 0.167 | inactive: 0.121 |  | inactive: -0.145 |  | inactive: -0.006 | inactive: -0.118 |  |  | inactive: -0.061 | inactive: -0.213 |  | inactive: 0.004 | inactive: 0.069 | inactive: -0.73

At a glance, some entries already given:
Target | log2 fold change [1] | log2 fold change [2] | log2 fold change [3] | log2 fold change [4] | log2 fold change [5] | log2 fold change [6] | log2 fold change [7] | log2 fold change [8] | log2 fold change [9] | log2 fold change [10] | log2 fold change [11] | log2 fold change [12] | log2 fold change [13] | log2 fold change [14] | log2 fold change [15] | log2 fold change [16] | log2 fold change [17] | log2 fold change [18] | log2 fold change [19] | log2 fold change [20]
RUFY1 (UniProt Q96T51) | inactive: 0.013 | inactive: -0.011 | inactive: -0.022 | inactive: -0.035 | inactive: 0.063 | inactive: 0.043 | inactive: 0.059 | inactive: 0.029 | inactive: 0.031 | inactive: 0.027 | inactive: -0.145 | active: -0.355 | inactive: 0.07 | inactive: -0.015 |  | inactive: 0.033 |  | inactive: 0.032 | inactive: 0.06 | inactive: -0.058
RSF1 (UniProt Q96T23) | inactive: 0.111 | inactive: -0.112 | inactive: -0.015 | inactive: 0.217 | inactive: -0.091 | inactive: 0.119 | inactive: 0.052 | inactive: 0.029 | inactive: 0.084 | inactive: 0.095 | inactive: -0.138 | inactive: -0.358 | inactive: 0.012 | inactive: 0.165 |  | inactive: 0.141 |  | inactive: -0.008 | inactive: -0.098 | inactive: -0.109
RUNX1 isoform 8 (UniProt Q01196) | inactive: 0.236 | inactive: 0.018 | inactive: 0.059 | inactive: -0.045 | inactive: -0.231 | inactive: -0.026 | inactive: 0.046 | inactive: 0.088 | inactive: 0.076 | inactive: -0.058 | inactive: -0.331 | active: -0.434 | inactive: 0.086 | inactive: -0.206 |  | inactive: 0.06 |  | inactive: -0.027 | inactive: -0.089 | inactive: -0.102
RSRC1 (UniProt Q96IZ7) | inactive: 0.041 | inactive: 0.013 | inactive: 0.006 | inactive: 0.056 | inactive: 0.02 | inactive: -0.046 | inactive: 0.004 | inactive: -0.026 | inactive: 0.019 | inactive: -0.031 | inactive: 0.01 | inactive: 0.056 | inactive: -0.041 | inactive: 0.083 |  | inactive: -0.005 |  | inactive: -0.01 | inactive: -0.021 | inactive: -0.062
SASH1 (UniProt O94885) | inactive: 0.046 | inactive: -0.013 | inactive: 0.024 | inactive: 0.01 | inactive: 0.038 | inactive: -0.043 | inactive: 0.097 | inactive: -0.031 | inactive: -0.063 | inactive: 0.071 | inactive: -0.136 | active: -0.308 | inactive: 0.044 | inactive: -0.075 |  | inactive: 0.042 |  | inactive: 0.054 | inactive: 0.027 | inactive: -0.29
